No constants are given. Whether binding was seen depends on the method and setting. Binding seen in cells or lysates may run through a third protein. Some results given as binding are weak or reduced against the parent protein; the word gives no strength.
Molecular target: T1, Nono (mouse (endogenous in bone marrow cells)) (UniProt Q99K48)
T1 sequence: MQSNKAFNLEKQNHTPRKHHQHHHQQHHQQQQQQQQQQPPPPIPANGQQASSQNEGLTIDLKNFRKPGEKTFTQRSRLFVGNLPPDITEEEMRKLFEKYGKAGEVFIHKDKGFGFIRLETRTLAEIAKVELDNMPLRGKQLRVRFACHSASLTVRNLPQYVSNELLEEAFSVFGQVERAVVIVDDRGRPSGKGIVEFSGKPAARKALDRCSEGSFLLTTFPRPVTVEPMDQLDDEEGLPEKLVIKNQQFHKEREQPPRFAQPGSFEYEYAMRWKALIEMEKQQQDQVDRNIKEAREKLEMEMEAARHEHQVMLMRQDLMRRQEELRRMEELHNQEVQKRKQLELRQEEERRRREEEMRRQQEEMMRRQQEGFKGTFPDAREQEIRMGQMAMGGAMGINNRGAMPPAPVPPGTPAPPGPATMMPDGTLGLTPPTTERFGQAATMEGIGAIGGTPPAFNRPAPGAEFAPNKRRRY
Experiment: co-IP; mouse bone marrow cell lysates incubated with anti-Nono antibody or IgG, followed by western blotting

binding: binds
Substance: histone methyltransferase Ash1l (from UniProt Q99MY8 1-2958) (enzyme)

Reference: publication PMC9372085
